These are yes or no findings as the source states them, for the method shown. Binding calls can cover weak binding; strength is not graded here. Where a sequence is shown, tags or fusion partners need not be part of it.
Target: T1, FAD reductase CtcQ from Kitasatospora aureofaciens (N-terminal tag removed) (Kitasatospora aureofaciens) (UniProt S4S3E3)
T1 sequence: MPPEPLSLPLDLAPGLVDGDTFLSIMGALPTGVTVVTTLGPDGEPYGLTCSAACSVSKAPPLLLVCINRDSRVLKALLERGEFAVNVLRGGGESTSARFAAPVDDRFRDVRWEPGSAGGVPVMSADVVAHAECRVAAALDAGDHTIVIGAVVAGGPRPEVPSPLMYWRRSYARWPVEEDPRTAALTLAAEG
Assay: native gel or EMSA; CtcQ (70 μM) mixed with CtcP at various concentrations in 20 mM HEPES pH 7.5, on ice overnight; 1.7% agarose gel at 4 °C in 25 mM Tris, 192 mM glycine; Coomassie stain; both purified

Q: Which binding does the source give for “halogenase CtcP from Kitasatospora aureofaciens, full-length (enzyme)” here?
A: binds weakly

From article PMC12400496 (Bioscience Reports, 2025)
